For at least one compound, name, drawing or mass did not settle the structure.
Tests used:
[1] = test system: cocaine self-administration in rats; experiment: Ongoing cocaine self-administration in rats (earlier experiments); type: in vivo, rat; conditions: pretreatment with the single drug
Source text: We then reduced the dose by one-half until we found a dose of each drug that no longer affected cocaine self-administration or any other observable behaviors (i.e., an ineffective dose). When we then combined the ineffective doses of the two drugs, cocaine self-administration was reduced. […] Thus, we concluded that combining drugs that affect the HPA axis through different mechanisms can produce an additive effect on cocaine reward. Furthermore, by combining these drugs at concentrations that have no effect when the drugs are administered alone, we can minimize the potential toxic side effects (e.g., excessive decreases in plasma cortisol with metyrapone and the abuse liability of benzodiazepines) that may be associated with these compounds. Accordingly, the compositions of the present invention may include combinations of therapeutic agents, one or both of which are present at a dosage level lower than that which would be required to achieve an effect had the agent been administered alone; the dosages may be additive.

[2] = test system: cocaine self-administration in rats; experiment: Cocaine self-administration before and after adrenalectomy, alternating schedule of cocaine and food reinforcement (Example 1); type: in vivo, Male Wistar rats; conditions: rats after bilateral adrenalectomy
Description: Male Wistar rats were housed in an AALAC-approved animal care facility and maintained at 85-90% of their free-feeding body weights. These rats were on a reversed 12-hour light, 12-hour dark cycle from the beginning of the experimental procedures.
A chronic indwelling jugular catheter (0.012 in i.d.×0.025 in o.d., silicone tubing) was implanted in each rat under pentobarbital anesthesia (50 mg/kg ip) with methyl atropine nitrate pretreatment (10 mg/kg ip). The animals were injected with sterile penicillin G procaine suspension (75,000 units, im) immediately before surgery and allowed 5-7 days to recover.
Animals were anesthetized with pentobarbital (50 mg/kg ip) with methyl atropine nitrate pretreatment (10 mg/kg ip). The adrenal glands were located through an incision and removed. The animals were injected with sterile penicillin G procaine suspension (75,000 units, im) and allowed to recover from surgery for 7 days. After ADX, the rats received drinking water containing 0.9% saline and 1.0% sucrose. Animals in the SHAM group received the same surgery except that the adrenal glands were not removed. They continued to receive tap water to drink.
Sound-attenuating operant conditioning chambers (Med-Associates, Inc.) were equipped with two response levers and a stimulus light located directly above each lever. A food pellet dispenser was located between the levers. […]

**Q.** With `O=C1Nc2ccc(Cl)cc2C(c2ccccc2)=NC1O` (centres unmarked) [oxazepam] as the molecule, how does the ongoing cocaine self-administration [1] read?
**A.** dose-dependently decreased

**Q.** And the “blocking cocaine self-administration following adrenalectomy compared to pre-adrenalectomy values” [2]?
**A.** as effective, and possibly even more effective
